# Data from the supplement of paper PMC10032668.
# Protein sequences, listed by entry. Tags and fused reporters are not part of them.
# CKS2, P33552, UniProt P33552, whole entry: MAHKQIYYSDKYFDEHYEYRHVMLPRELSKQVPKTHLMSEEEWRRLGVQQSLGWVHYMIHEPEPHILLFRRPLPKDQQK
# DLAT, P10515, UniProt P10515, whole entry: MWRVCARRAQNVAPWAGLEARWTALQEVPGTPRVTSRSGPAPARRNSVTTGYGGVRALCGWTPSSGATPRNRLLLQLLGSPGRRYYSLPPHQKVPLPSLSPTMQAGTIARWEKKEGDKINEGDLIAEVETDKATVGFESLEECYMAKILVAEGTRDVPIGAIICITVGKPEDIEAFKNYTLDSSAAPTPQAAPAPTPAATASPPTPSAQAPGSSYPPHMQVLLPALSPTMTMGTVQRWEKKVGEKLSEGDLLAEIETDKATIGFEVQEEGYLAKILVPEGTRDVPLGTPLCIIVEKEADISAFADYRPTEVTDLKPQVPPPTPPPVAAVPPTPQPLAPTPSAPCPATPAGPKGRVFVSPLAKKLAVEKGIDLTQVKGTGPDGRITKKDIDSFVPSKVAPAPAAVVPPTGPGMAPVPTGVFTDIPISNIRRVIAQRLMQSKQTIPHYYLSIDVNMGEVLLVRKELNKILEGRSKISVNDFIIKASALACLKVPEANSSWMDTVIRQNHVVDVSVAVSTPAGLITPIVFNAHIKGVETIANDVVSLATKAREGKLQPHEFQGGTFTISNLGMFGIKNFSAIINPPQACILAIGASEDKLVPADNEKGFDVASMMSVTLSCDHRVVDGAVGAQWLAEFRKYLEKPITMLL
# FAM168B, A1KXE4, UniProt A1KXE4, whole entry: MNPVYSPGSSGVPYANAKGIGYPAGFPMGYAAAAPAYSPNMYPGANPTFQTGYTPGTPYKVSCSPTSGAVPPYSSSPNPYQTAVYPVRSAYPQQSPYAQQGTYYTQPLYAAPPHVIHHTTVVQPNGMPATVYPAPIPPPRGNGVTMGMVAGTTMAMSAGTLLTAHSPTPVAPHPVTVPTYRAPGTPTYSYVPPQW
# PCBP2, Q15366, UniProt Q15366, whole entry: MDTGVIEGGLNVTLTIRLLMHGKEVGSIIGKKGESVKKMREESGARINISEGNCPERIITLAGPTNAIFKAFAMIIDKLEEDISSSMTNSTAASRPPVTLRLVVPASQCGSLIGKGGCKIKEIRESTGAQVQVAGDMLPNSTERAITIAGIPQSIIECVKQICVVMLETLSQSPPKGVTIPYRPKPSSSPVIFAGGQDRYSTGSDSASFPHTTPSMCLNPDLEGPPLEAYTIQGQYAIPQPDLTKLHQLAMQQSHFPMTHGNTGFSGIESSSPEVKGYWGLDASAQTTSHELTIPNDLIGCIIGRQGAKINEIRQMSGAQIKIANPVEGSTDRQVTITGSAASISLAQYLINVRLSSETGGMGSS
# SP1, P08047, UniProt P08047, whole entry: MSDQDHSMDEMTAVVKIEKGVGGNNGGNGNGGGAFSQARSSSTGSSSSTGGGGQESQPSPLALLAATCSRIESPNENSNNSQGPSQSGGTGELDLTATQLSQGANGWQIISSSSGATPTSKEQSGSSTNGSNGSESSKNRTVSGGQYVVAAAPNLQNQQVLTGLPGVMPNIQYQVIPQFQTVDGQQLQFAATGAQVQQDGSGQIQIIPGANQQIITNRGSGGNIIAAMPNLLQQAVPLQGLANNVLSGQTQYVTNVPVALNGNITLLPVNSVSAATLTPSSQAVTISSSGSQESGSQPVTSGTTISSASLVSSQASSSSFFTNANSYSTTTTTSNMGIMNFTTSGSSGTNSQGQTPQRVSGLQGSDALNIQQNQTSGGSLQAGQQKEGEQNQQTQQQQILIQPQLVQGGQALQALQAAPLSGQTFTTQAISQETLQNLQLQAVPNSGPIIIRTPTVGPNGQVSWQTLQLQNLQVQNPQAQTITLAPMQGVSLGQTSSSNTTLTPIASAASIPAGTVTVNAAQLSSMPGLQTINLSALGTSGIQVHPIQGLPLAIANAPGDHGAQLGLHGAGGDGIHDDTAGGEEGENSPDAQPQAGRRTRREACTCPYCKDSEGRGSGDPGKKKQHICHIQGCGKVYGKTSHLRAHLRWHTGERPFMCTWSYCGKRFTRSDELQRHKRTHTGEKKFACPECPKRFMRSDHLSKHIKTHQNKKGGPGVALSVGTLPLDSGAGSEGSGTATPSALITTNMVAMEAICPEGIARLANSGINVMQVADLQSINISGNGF
# SNX1, Q13596, UniProt Q13596, whole entry: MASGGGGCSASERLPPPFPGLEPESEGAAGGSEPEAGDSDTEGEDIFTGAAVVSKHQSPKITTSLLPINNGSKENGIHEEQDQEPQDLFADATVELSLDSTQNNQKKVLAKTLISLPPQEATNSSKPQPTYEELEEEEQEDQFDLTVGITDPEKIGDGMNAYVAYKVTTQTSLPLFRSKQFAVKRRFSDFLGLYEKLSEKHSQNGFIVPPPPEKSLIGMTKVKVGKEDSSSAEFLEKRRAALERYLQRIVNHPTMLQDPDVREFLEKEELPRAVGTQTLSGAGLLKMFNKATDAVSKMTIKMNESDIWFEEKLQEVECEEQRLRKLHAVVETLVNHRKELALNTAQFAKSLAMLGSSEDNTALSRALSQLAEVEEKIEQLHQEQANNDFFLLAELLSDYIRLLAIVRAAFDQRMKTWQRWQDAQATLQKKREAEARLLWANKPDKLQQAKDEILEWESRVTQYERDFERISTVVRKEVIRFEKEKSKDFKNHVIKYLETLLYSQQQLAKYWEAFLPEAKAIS
# ATXN2, Q99700, UniProt Q99700, whole entry: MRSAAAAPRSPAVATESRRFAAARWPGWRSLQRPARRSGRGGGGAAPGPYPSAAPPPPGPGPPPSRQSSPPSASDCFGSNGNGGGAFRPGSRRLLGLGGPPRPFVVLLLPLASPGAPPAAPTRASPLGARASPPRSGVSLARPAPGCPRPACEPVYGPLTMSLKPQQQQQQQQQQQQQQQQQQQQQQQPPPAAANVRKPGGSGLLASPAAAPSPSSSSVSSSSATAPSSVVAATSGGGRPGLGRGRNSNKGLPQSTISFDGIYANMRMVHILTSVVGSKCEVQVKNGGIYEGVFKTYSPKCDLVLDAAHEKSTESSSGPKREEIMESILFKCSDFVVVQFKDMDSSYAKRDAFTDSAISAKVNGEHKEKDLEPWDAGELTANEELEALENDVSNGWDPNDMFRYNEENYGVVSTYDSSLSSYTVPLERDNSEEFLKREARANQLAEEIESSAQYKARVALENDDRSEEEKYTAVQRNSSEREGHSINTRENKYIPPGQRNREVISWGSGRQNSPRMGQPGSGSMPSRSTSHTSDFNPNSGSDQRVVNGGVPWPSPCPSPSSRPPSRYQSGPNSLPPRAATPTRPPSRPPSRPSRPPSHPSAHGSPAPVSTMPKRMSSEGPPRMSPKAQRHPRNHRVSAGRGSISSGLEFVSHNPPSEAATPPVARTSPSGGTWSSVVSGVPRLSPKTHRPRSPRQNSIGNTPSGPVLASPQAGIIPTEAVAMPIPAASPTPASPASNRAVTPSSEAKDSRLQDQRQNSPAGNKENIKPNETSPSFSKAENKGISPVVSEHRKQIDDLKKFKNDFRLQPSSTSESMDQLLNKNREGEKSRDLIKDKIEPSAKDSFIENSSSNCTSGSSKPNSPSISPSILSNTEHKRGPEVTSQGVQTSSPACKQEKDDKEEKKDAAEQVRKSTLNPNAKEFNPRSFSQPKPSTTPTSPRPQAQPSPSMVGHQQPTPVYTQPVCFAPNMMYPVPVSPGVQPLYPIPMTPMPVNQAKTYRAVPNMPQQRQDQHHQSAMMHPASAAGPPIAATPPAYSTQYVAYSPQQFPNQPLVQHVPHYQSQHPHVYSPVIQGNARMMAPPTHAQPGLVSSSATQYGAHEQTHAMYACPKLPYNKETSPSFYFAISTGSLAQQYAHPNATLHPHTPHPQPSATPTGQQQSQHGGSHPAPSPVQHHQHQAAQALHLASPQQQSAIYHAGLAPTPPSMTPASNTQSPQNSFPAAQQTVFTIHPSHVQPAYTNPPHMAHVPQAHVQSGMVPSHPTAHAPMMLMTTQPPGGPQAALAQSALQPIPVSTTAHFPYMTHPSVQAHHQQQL
# MSN, P26038, UniProt P26038, whole entry: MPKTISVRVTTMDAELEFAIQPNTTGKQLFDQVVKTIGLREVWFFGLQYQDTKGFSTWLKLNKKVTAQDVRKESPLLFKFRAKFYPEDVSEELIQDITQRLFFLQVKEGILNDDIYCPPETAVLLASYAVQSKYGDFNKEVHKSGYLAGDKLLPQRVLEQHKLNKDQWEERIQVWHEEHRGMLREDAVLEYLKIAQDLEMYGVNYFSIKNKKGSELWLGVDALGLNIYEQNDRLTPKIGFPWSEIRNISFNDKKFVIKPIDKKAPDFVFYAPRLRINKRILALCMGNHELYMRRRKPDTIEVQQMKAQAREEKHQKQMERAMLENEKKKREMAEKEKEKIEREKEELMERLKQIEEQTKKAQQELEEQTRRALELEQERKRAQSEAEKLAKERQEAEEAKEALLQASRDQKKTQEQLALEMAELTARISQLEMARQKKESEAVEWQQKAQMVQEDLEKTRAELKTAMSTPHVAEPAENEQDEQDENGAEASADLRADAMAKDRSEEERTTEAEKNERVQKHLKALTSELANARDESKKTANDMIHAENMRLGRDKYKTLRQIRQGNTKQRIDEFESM
# ASF1B, Q9NVP2, UniProt Q9NVP2, whole entry: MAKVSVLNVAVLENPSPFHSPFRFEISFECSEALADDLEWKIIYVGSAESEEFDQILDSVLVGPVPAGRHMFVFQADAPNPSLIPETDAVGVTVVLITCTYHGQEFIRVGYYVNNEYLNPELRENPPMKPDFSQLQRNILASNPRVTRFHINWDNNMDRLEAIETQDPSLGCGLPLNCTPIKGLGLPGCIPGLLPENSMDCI
# TF, P02787, UniProt P02787, whole entry: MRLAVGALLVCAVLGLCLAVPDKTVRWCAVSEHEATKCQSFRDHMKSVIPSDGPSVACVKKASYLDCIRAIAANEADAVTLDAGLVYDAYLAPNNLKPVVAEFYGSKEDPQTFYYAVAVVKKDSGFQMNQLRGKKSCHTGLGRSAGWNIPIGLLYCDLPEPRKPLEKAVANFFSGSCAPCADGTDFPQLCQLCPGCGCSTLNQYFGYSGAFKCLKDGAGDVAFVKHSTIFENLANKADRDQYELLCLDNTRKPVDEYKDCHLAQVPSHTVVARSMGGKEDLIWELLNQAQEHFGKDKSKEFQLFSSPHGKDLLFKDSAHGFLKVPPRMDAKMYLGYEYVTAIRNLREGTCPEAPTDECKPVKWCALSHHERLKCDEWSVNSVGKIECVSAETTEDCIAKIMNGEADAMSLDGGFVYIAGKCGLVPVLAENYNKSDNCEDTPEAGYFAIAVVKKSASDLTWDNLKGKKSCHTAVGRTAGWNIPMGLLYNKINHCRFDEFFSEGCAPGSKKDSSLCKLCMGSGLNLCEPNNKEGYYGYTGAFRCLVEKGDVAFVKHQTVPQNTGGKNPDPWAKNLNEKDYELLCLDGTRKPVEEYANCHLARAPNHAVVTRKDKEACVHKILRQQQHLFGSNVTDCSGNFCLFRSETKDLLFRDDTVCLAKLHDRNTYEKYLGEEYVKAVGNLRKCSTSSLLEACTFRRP
# COX6C, P09669, UniProt P09669, whole entry: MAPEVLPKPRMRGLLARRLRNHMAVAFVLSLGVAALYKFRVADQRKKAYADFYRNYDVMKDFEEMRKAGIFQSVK
# ± gives the standard deviation of the averaged measurements. The list shows a part of the results. Only hits are listed; about a third recur on repeated control peptides.
# Experiments:
# Assay in all cases: PRISMA enrichment of interactor (LFQ) in peptide spot vs all other peptide spots (log2 fold change); higher = stronger / more specific binding of the interactor to the peptide
# [1] = molecular target: ARMC6, Q6NXE6
# Protocol: (§1)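 PRISMA: 15-aa overlapping tiles (offset 8 aa) of 60 microproteins, plus SOS1/GLUT1 control peptides, were spot-synthesized on cellulose membranes in triplicate. Membranes were incubated with benzonase-treated HEK293T lysate, and bound proteins were identified by LC-MS/MS with LFQ. Enrichment is the log2 fold change of each protein in one spot versus all other spots. Only interactors passing the significance cutoff are listed.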
# [2] = molecular target: CARM1, Q86X55
# Protocol: as §1
# [3] = molecular target: CGN, Q9P2M7
# Protocol: as §1
# [4] = molecular target: CKS2, P33552
# Protocol: as §1
# [5] = molecular target: COPZ1, P61923
# Protocol: as §1
# [6] = molecular target: CTR9, Q6PD62
# Protocol: as §1
# [7] = molecular target: DDX5, P17844
# Protocol: as §1
# [8] = molecular target: DLAT, P10515
# Protocol: as §1
# [9] = molecular target: FAM168B, A1KXE4
# Protocol: as §1
# [10] = molecular target: MBNL1, Q9NR56
# Protocol: as §1
# [11] = molecular target: MRPL27, Q9P0M9
# Protocol: as §1
# [12] = molecular target: PCBP2, Q15366
# Protocol: as §1
# [13] = molecular target: PHGDH, O43175
# Protocol: as §1
# [14] = molecular target: POU2F1, P14859
# Protocol: as §1
# [15] = molecular target: QRICH1, Q2TAL8
# Protocol: as §1
# [16] = molecular target: RBM38, Q9H0Z9
# Protocol: as §1
# [17] = molecular target: SP1, P08047
# Protocol: as §1
# [18] = molecular target: ASMTL, O95671
# Protocol: as §1
# [19] = molecular target: DCAF13, Q9NV06
# Protocol: as §1
# [20] = molecular target: ELP1, O95163
# Protocol: as §1
# [21] = molecular target: LARP1, Q6PKG0
# Protocol: as §1
# [22] = molecular target: NCAPG, Q9BPX3
# Protocol: as §1
# [23] = molecular target: PDCL3, Q9H2J4
# Protocol: as §1
# [24] = molecular target: S100A9, P06702
# Protocol: as §1
# [25] = molecular target: SCRIB
# Protocol: as §1
# [26] = molecular target: SLC25A17, O43808
# Protocol: as §1
# [27] = molecular target: SNRPN, P63162
# Protocol: as §1
# [28] = molecular target: SNX1, Q13596
# Protocol: as §1
# [29] = molecular target: ATXN2, Q99700
# Protocol: as §1
# [30] = molecular target: BAZ1B, Q9UIG0
# Protocol: as §1
# [31] = molecular target: CDC42EP1, Q00587
# Protocol: as §1
# [32] = molecular target: CHCHD1, Q96BP2
# Protocol: as §1
# [33] = molecular target: CHMP4B, Q9H444
# Protocol: as §1
# [34] = molecular target: COQ8A, Q8NI60
# Protocol: as §1
# [35] = molecular target: DFFA, O00273
# Protocol: as §1
# [36] = molecular target: DKC1, O60832
# Protocol: as §1
# [37] = molecular target: DNAJB11, Q9UBS4
# Protocol: as §1
# [38] = molecular target: EEF1B2, P24534
# Protocol: as §1
# [39] = molecular target: EHD1, Q9H4M9
# Protocol: as §1
# [40] = molecular target: FAM50A, Q14320
# Protocol: as §1
# [41] = molecular target: MAPRE1, Q15691
# Protocol: as §1
# [42] = molecular target: MSN, P26038
# Protocol: as §1
# [43] = molecular target: NOP56, O00567
# Protocol: as §1
# [44] = molecular target: NSD2, O96028
# Protocol: as §1
# [45] = molecular target: NUP214, P35658
# Protocol: as §1
# [46] = molecular target: POLD1, P28340
# Protocol: as §1
# [47] = molecular target: POLD2, P49005
# Protocol: as §1
# [48] = molecular target: PRPS2, P11908
# Protocol: as §1
# [49] = molecular target: RAB3GAP2, Q9H2M9
# Protocol: as §1
# [50] = molecular target: RAE1, P78406
# Protocol: as §1
# [51] = molecular target: SDF2L1, Q9HCN8
# Protocol: as §1
# [52] = molecular target: SSR3, Q9UNL2
# Protocol: as §1
# [53] = molecular target: UFD1, Q92890
# Protocol: as §1
# [54] = molecular target: UTP18, Q9Y5J1
# Protocol: as §1
# [55] = molecular target: VIRMA, Q69YN4
# Protocol: as §1
# [56] = molecular target: ZC3H11A, O75152
# Protocol: as §1
# [57] = molecular target: ZFR, Q96KR1
# Protocol: as §1
# [58] = molecular target: ASCC2, Q9H1I8
# Protocol: as §1
# [59] = molecular target: DDX27, Q96GQ7
# Protocol: as §1
# [60] = molecular target: KPNA6, O60684
# Protocol: as §1
# [61] = molecular target: MRPL13, Q9BYD1
# Protocol: as §1
# [62] = molecular target: MT-ATP6, P00846
# Protocol: as §1
# [63] = molecular target: ASF1B, Q9NVP2
# Protocol: as §1
# [64] = molecular target: MRPL38, Q96DV4
# Protocol: as §1
# [65] = molecular target: NAP1L1, P55209
# Protocol: as §1
# [66] = molecular target: NUP188, Q5SRE5
# Protocol: as §1
# [67] = molecular target: SYNCRIP, O60506
# Protocol: as §1
# [68] = molecular target: TF, P02787
# Protocol: as §1
# [69] = molecular target: BRIX1, Q8TDN6
# Protocol: as §1
# [70] = molecular target: COX6C, P09669
# Protocol: as §1
# [71] = molecular target: GABARAPL2, P60520
# Protocol: as §1
# [72] = molecular target: NCBP2AS2, Q69YL0
# Protocol: as §1
# [73] = molecular target: PRAF2, O60831
# Protocol: as §1
# [74] = molecular target: SDAD1, Q9NVU7
# Protocol: as §1
# [75] = molecular target: TBCD, Q9BTW9
# Protocol: as §1
# [76] = molecular target: TFRC, P02786
# Protocol: as §1
binder,measurement,setting,value
HALFLFPFPVLTVTQ [LINC00881],PRISMA enrichment of interactor (log2),[1],6.76
same,PRISMA enrichment of interactor (log2),[2],4.34
same,PRISMA enrichment of interactor (log2),[3],5.66
same,PRISMA enrichment of interactor (log2),[4],5.12
same,PRISMA enrichment of interactor (log2),[5],4.55
same,PRISMA enrichment of interactor (log2),[6],6.2
same,PRISMA enrichment of interactor (log2),[7],4.59
same,PRISMA enrichment of interactor (log2),[8],4.84
same,PRISMA enrichment of interactor (log2),[9],4.65
same,PRISMA enrichment of interactor (log2),[10],4.82
same,PRISMA enrichment of interactor (log2),[11],6.85
same,PRISMA enrichment of interactor (log2),[12],3.95
same,PRISMA enrichment of interactor (log2),[13],4.54
same,PRISMA enrichment of interactor (log2),[14],4.28
same,PRISMA enrichment of interactor (log2),[15],4.35
same,PRISMA enrichment of interactor (log2),[16],4.43
same,PRISMA enrichment of interactor (log2),[17],4.87
RPAHFRILKVVLREA [PVT1],PRISMA enrichment of interactor (log2),[18],5.94
same,PRISMA enrichment of interactor (log2),[19],5.15
same,PRISMA enrichment of interactor (log2),[20],6.52
same,PRISMA enrichment of interactor (log2),[21],5.95
same,PRISMA enrichment of interactor (log2),[22],6.29
same,PRISMA enrichment of interactor (log2),[23],7.88
same,PRISMA enrichment of interactor (log2),[24],5.45
same,PRISMA enrichment of interactor (log2),[25],8.64
same,PRISMA enrichment of interactor (log2),[26],5.55
same,PRISMA enrichment of interactor (log2),[27],6.16
same,PRISMA enrichment of interactor (log2),[28],5.43
ICVTLLPSVYRPCTS [EBAG9],PRISMA enrichment of interactor (log2),[1],10.6
same,PRISMA enrichment of interactor (log2),[29],5.77
same,PRISMA enrichment of interactor (log2),[30],5.43
same,PRISMA enrichment of interactor (log2),[31],4.71
same,PRISMA enrichment of interactor (log2),[32],5.29
same,PRISMA enrichment of interactor (log2),[33],4.57
same,PRISMA enrichment of interactor (log2),[34],4.35
same,PRISMA enrichment of interactor (log2),[35],8.98
same,PRISMA enrichment of interactor (log2),[36],4.94
same,PRISMA enrichment of interactor (log2),[37],5.67
same,PRISMA enrichment of interactor (log2),[38],4.51
same,PRISMA enrichment of interactor (log2),[39],5.69
same,PRISMA enrichment of interactor (log2),[40],4.38
same,PRISMA enrichment of interactor (log2),[41],5.47
same,PRISMA enrichment of interactor (log2),[42],6.41
same,PRISMA enrichment of interactor (log2),[43],6.67
same,PRISMA enrichment of interactor (log2),[44],5.76
same,PRISMA enrichment of interactor (log2),[45],4.43
same,PRISMA enrichment of interactor (log2),[46],5.29
same,PRISMA enrichment of interactor (log2),[47],4.51
same,PRISMA enrichment of interactor (log2),[48],4.03
same,PRISMA enrichment of interactor (log2),[49],4.67
same,PRISMA enrichment of interactor (log2),[50],6.45
same,PRISMA enrichment of interactor (log2),[51],4.52
same,PRISMA enrichment of interactor (log2),[52],4.77
same,PRISMA enrichment of interactor (log2),[53],4.35
same,PRISMA enrichment of interactor (log2),[54],6.21
same,PRISMA enrichment of interactor (log2),[55],5.58
same,PRISMA enrichment of interactor (log2),[56],4.4
same,PRISMA enrichment of interactor (log2),[57],4.97
ANNLAGVFRLFHWLT [CTD-2366F13.1],PRISMA enrichment of interactor (log2),[58],7.4
same,PRISMA enrichment of interactor (log2),[59],4.98
same,PRISMA enrichment of interactor (log2),[60],4.84
same,PRISMA enrichment of interactor (log2),[61],5.16
same,PRISMA enrichment of interactor (log2),[62],4.45
RGLGPAGAARKRGNS [TBX5-AS1],PRISMA enrichment of interactor (log2),[63],4.13
same,PRISMA enrichment of interactor (log2),[64],4.34
same,PRISMA enrichment of interactor (log2),[65],5.52 ± 0.75
same,PRISMA enrichment of interactor (log2),[66],4.98
same,PRISMA enrichment of interactor (log2),[15],4.1
same,PRISMA enrichment of interactor (log2),[67],6.99
same,PRISMA enrichment of interactor (log2),[68],5.72
VGSRYLLSIRRSGLP [CUL5],PRISMA enrichment of interactor (log2),[1],5.24
same,PRISMA enrichment of interactor (log2),[69],6.56
same,PRISMA enrichment of interactor (log2),[70],7.43
same,PRISMA enrichment of interactor (log2),[71],4.91
same,PRISMA enrichment of interactor (log2),[72],6.2
same,PRISMA enrichment of interactor (log2),[23],8.2
same,PRISMA enrichment of interactor (log2),[46],4.87
same,PRISMA enrichment of interactor (log2),[73],3.76
same,PRISMA enrichment of interactor (log2),[74],5.63
same,PRISMA enrichment of interactor (log2),[75],5.91
same,PRISMA enrichment of interactor (log2),[76],5.52

# A portion of the results above, as a working copy:
binder,measurement,setting,value
HALFLFPFPVLTVTQ [LINC00881],PRISMA enrichment of interactor (log2),[10],4.82
same,PRISMA enrichment of interactor (log2),[11],6.85
same,PRISMA enrichment of interactor (log2),[12],3.95
same,PRISMA enrichment of interactor (log2),[13],4.54
